# Measurements from PubChem BioAssay AID504467 (National Center for Advancing Translational Sciences (NCATS), 2011).
# Among all 330,000 compounds or so, about 7,700 (2.3%) were called active. This list was built around the results that the source calls inconclusive (neither active nor inactive); the mix of calls is not that of the screen. Calls follow the shape of the dose curve; as a rule, active = well fitted inhibition curve with a large enough effect; inconclusive = small, poorly fitted or top-dose-only effect, or effect the other way; inactive = flat fitted curve, though single readings scatter. Where the call is inconclusive, the potency comes from a doubtful curve fit.
# Experiment: qHTS screen for small molecules that inhibit ELG1-dependent DNA repair in human embryonic kidney (HEK293T) cells expressing luciferase-tagged ELG1; also: nearly all actives have a fitted effect of over 55% in size
# Conditions: HEK293T ELG1-luciferase reporter, luminescence, 16 h, DNA damage induced by 5-fluorouridine; series mostly up to 46.1 µM
# Procedure, shortened: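 Quantitative HTS, concentration-response format. 2,000 cells/well co-treated with 5-fluorouridine and compound, 16 hr in 5% CO2 at 37 °C; ONE-Glo luminescence read after 30 min.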
# Potency is read from the fitted curve at half-maximal effect.
row,Structure (SMILES),Potency
1,Cc1cccc(NC(=O)NNC(=O)c2c(Cl)c(C)nn2C)c1,inactive
2,Cc1cccc(NS(=O)(=O)c2cccc(C(=O)NCC(c3ccco3)N(C)C)c2)c1 (stereo not given),inactive
3,Cc1ccccc1S(=O)(=O)/N=C(/Nc1c(C)n(C)n(-c2ccccc2)c1=O)c1ccccc1,"inconclusive: 0.259 µM [inhibitor, single point]"
4,C[C@H](NC(=O)c1[nH]cnc1C(=O)Nc1ccc(CNC(=O)OC(C)(C)C)cc1)C(=O)OC(C)(C)C,active: 16.4 µM
5,O=C(CSc1nnc(CCCN2C(=O)c3cccc4cccc(c34)C2=O)n1-c1ccccc1)N1CCN(CCO)CC1,"inconclusive: 23.1 µM [inhibitor, partial curve, poor fit]"
6,NS(=O)(=O)c1ccc(CCNC(=O)c2ccc([N+](=O)[O-])s2)cc1,active: 13 µM
7,CC(/C=N/NC(=O)c1ccccc1F)=C\c1ccccc1,"inconclusive: 13 µM [activator, partial curve]"
8,Cc1cc(NC(=O)CN2C(=O)NC(C)(c3ccc(Cl)cc3Cl)C2=O)no1 (stereo not given),"inconclusive: 1.3 µM [inhibitor, single point]"
9,O=C1C=CC(=O)N1N(c1ccccc1)c1ccccc1,"inconclusive: 13 µM [inhibitor, partial curve, poor fit]"
10,Cc1ccc(C(=O)Nc2ccc(NC(=O)c3ccco3)c(C)c2)cc1,"inconclusive: 16.4 µM [activator, partial curve]"
11,N/C(=N\OC(=O)c1ccco1)c1cccnc1,"inconclusive: 16.4 µM [activator, partial curve]"
12,COc1ccccc1-c1cc(-c2cc(Cl)ccc2O)n[nH]1,"inconclusive: 18.4 µM [activator, partial curve, poor fit]"
13,CCC(C)NC(=O)c1cn(CC)c2ccc(S(=O)(=O)N(C)C)cc2c1=O (stereo not given),"inconclusive: 16.4 µM [inhibitor, partial curve, poor fit]"
14,CN(Cc1nc2ccccc2s1)C(=O)c1ccc(F)cc1,inactive
15,Cc1ccc(NC(=S)/C(=C(\[O-])c2ccc(F)cc2)[n+]2ccccc2)cc1,inactive
16,CCn1cc(C(=O)NCCCO)c(=O)c2cc(F)c(N3CCN(C)CC3)cc21,inactive
17,COc1ccc(C(=O)c2ccc(OC)c(Br)c2)cc1Br,inactive
18,COc1ccc(N2C(=O)CCC(C(=O)O)C2c2ccc(F)cc2)cc1 (stereo not given),inactive
19,COc1ccc(NC(=O)Cn2c(-c3ccc(OC)cc3)cn(-c3ccc(C)cc3)c2=O)cc1,"inconclusive: 23.1 µM [inhibitor, single point]"
20,O=S(=O)(Nc1cccc(-c2cn3cccnc3n2)c1)c1ccc(-c2ccccc2)cc1,"inconclusive: 17.8 µM [inhibitor, single point]"
21,O=C(OCc1cccc(Cl)c1)c1cc(S(=O)(=O)N2CCCCC2)ccc1N1CCOCC1,"inconclusive: 18.3 µM [inhibitor, partial curve]"
22,Cc1cccc(NC(=O)C2CCN(c3ncnc4c3nc3n4CCCCC3)CC2)n1,active: 1.83 µM
23,COc1ccc(C(=O)Nc2cccc(-c3ccc(N4CCOCC4)nn3)c2)cc1,"inconclusive: 3.66 µM [activator, partial curve, poor fit]"

row,Structure (SMILES),Potency
1,C=C[C@@H]1c2ccccc2N(S(=O)(=O)c2ccc(C)cc2)[C@H](c2ccc(C(=O)OC)cc2)C1(C#N)C#N,inactive
2,COc1ccc([N+](=O)[O-])cc1NCC(=O)Nc1cccc(S(=O)(=O)N2CCCC2)c1,"inconclusive: 20.6 µM [inhibitor, single point]"
3,COc1ccc(/C=N\NC(=O)C2C(=O)NCC2c2ccccc2)cc1O (stereo not given),inactive
4,O=C(Nc1nnc(C2=COCCO2)o1)c1cccc(F)c1,inactive
5,Cc1ccc(S(=O)(=O)Nc2ccc3cn[nH]c3c2)cc1C,inactive
6,COc1ccccc1-c1c(C)nn2c(N)c(-c3ccccc3)cnc12,"inconclusive: 29.1 µM [inhibitor, single point]"
7,O=C(CN1C(=O)/C(=C/c2ccco2)SC1=S)Nc1ccc(O)c(C(=O)O)c1,inactive
8,O=C(COc1ccccc1Cl)NNC(=O)c1ccc2nc[nH]c2c1,inactive
9,COc1ccc(-n2c(COc3cccc4ccccc34)nnc2SCC#N)cc1,"inconclusive: 29.1 µM [inhibitor, partial curve, poor fit]"
10,O=C(N/N=C/C(Cl)=C\c1ccccc1)c1ccco1,"inconclusive: 16.4 µM [activator, partial curve]"
11,N#Cc1c(SCC(=O)Nc2nc3ccccc3s2)sc2c(O)cc(=O)[nH]c12,"inconclusive: 18.3 µM [activator, partial curve]"
12,COc1cc(-c2nc3cnccn3c2Nc2ccccc2)ccc1O,"inconclusive: 32.6 µM [inhibitor, single point]"
13,CC(C)C(=O)Nc1ccc(NC(=O)c2cccnc2)cn1,"inconclusive: 23.1 µM [activator, partial curve, poor fit]"
14,O=C(c1ccc(Br)o1)N1CCCc2ccccc21,inactive
15,CC(C)CN1CCC(=O)N(CCSc2ccccc2)CC1,"inconclusive: 1.64 µM [activator, partial curve]"
16,Cc1ccc(NC(=O)c2ccc(C#CC3(O)CCCCC3)cc2)cc1C,inactive
17,C(=N\Nc1cc(N2CCCCC2)ncn1)/c1ccco1,"inconclusive: 5.8 µM [activator, partial curve]"
18,Cc1sc(NC(=O)c2ccc(OCC(C)C)cc2)c(C(N)=O)c1-c1ccc(Cl)cc1Cl,inactive
19,O=C(CCCCCCN1C(=O)c2ccccc2C1=O)N1CCC(c2ccccc2)C1 (stereo not given),"inconclusive: 23.1 µM [inhibitor, single point]"
20,Cc1cc(C)c(NC(=O)CS(=O)CC(=O)Nc2ccc(N3CCOCC3)cc2)c(C)c1 (stereo not given),inactive
21,Cc1ccc(NC(=O)CSc2ncccc2C(=O)Oc2cccc([N+](=O)[O-])c2)cc1Cl,"inconclusive: 23.1 µM [activator, partial curve]"
22,C1CCN(c2nc3nonc3nc2N2CCCC2)C1,"inconclusive: 2.82 µM [activator, partial curve, poor fit]"

# Pulled by compound from the entries so far:
row,Structure (SMILES),Potency
21,Cc1ccc(NC(=O)CSc2ncccc2C(=O)Oc2cccc([N+](=O)[O-])c2)cc1Cl,"inconclusive: 23.1 µM [activator, partial curve]"
11,N#Cc1c(SCC(=O)Nc2nc3ccccc3s2)sc2c(O)cc(=O)[nH]c12,"inconclusive: 18.3 µM [activator, partial curve]"
